# Assay results taken from the supplement of paper PMC12067093, “Discovery and optimisation of a covalent ligand for TRIM25 and its application to targeted protein ubiquitination” (Chemical Science, 2025).
# Protein sequences, listed by entry. Tags and fused reporters are not part of them. Lines headed by an entry give the natural chain unless they say otherwise; changes in a name come on top.
# UniProt Q9H4P4: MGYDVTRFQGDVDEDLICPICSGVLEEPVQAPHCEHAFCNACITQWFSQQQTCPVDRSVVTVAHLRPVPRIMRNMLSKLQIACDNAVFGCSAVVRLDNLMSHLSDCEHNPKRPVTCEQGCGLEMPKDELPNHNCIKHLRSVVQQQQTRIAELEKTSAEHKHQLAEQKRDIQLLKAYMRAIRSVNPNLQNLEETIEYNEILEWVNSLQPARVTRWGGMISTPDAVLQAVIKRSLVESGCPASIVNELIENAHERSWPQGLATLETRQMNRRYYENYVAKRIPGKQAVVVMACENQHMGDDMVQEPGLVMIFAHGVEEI
# UniProt P13489: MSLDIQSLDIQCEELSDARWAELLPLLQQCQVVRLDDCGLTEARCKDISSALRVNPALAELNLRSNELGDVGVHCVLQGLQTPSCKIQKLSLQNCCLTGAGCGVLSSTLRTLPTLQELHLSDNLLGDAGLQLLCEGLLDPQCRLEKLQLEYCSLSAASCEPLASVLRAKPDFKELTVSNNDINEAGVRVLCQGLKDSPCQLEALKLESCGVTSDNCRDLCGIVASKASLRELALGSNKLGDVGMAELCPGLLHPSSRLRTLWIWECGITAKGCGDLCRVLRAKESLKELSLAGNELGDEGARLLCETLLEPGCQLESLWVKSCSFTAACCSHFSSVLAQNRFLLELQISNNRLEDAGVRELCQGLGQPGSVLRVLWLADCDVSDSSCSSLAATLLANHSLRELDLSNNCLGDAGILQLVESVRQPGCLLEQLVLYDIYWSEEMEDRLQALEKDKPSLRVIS
# UniProt Q13464: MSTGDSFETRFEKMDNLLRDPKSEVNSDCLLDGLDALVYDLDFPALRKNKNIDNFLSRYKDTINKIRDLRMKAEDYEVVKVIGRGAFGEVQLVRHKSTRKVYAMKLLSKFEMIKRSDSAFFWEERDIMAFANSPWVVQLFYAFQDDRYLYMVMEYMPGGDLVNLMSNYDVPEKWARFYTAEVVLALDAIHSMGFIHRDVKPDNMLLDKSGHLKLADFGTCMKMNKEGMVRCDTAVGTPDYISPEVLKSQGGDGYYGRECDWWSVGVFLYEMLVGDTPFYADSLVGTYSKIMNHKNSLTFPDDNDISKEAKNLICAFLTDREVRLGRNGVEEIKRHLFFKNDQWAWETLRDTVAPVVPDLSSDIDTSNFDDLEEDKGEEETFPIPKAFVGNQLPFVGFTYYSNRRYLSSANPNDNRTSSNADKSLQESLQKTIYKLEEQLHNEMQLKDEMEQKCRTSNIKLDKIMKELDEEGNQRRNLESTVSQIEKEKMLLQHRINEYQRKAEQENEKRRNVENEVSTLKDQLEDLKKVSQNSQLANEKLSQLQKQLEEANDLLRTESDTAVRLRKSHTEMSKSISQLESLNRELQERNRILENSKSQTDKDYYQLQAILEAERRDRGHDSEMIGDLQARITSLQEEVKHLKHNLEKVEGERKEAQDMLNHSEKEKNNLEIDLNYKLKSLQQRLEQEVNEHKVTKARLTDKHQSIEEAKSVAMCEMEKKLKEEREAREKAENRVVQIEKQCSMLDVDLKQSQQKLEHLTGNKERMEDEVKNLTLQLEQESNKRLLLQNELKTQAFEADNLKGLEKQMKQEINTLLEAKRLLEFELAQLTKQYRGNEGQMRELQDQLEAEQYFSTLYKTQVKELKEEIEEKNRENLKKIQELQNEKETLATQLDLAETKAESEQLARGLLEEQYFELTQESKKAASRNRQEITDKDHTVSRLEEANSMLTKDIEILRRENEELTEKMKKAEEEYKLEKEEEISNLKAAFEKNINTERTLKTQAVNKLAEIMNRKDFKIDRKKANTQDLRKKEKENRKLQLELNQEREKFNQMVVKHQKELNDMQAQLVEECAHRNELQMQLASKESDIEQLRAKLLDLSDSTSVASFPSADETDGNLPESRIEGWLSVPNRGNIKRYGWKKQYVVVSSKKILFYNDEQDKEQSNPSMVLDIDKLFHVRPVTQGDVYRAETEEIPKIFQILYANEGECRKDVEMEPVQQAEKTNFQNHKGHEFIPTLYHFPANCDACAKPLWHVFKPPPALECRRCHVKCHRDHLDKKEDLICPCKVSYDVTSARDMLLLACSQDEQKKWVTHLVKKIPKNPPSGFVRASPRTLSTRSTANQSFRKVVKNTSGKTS
# UniProt O43148, whole entry, looked up: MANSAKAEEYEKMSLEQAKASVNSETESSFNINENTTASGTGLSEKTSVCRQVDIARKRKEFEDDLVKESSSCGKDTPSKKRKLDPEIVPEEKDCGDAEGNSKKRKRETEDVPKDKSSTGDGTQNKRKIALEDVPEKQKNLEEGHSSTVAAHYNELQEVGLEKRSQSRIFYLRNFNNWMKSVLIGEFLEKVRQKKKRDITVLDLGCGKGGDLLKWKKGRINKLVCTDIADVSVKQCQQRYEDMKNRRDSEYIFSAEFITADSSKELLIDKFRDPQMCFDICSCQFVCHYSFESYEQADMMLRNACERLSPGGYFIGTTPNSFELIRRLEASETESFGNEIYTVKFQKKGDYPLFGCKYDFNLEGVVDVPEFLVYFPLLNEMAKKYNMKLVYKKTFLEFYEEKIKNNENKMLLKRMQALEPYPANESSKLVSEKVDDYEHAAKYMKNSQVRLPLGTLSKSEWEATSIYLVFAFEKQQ
# UniProt Q8ND24: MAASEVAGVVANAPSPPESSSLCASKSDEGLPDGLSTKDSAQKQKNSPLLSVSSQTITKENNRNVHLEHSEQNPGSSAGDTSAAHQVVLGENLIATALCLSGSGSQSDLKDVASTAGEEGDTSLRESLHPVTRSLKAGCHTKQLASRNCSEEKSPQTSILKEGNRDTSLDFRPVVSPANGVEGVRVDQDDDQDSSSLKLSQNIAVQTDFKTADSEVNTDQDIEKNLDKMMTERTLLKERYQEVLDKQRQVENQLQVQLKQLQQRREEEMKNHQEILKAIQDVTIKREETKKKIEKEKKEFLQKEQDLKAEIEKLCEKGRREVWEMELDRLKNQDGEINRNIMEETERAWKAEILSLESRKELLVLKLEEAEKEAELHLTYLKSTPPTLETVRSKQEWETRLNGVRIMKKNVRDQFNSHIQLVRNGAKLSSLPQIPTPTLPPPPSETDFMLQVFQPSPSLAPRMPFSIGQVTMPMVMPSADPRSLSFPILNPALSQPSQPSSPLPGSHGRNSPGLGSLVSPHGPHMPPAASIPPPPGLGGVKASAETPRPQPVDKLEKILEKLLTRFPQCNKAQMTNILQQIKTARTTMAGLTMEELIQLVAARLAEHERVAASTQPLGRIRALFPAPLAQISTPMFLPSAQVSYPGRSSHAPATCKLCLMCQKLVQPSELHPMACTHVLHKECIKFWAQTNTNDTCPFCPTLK
# UniProt P78346: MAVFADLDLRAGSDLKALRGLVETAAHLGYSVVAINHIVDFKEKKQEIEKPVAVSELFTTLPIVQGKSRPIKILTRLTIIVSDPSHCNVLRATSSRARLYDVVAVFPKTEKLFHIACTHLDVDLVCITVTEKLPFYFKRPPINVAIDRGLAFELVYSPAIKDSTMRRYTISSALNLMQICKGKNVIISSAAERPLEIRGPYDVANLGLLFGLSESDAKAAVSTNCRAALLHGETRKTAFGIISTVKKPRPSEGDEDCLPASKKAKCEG
# UniProt Q86UA6: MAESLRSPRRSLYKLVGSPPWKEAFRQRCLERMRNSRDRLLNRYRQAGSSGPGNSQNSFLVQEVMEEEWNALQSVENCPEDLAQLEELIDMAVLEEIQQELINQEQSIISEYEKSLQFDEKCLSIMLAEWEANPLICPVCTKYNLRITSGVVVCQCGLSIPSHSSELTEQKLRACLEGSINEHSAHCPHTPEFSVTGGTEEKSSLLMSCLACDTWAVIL
# UniProt Q9P0P0: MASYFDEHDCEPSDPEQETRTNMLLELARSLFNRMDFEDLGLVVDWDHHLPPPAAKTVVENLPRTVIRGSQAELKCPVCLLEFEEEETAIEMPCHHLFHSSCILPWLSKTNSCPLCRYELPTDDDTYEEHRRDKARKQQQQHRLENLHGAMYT
# UniProt Q9H6T3, whole entry, looked up: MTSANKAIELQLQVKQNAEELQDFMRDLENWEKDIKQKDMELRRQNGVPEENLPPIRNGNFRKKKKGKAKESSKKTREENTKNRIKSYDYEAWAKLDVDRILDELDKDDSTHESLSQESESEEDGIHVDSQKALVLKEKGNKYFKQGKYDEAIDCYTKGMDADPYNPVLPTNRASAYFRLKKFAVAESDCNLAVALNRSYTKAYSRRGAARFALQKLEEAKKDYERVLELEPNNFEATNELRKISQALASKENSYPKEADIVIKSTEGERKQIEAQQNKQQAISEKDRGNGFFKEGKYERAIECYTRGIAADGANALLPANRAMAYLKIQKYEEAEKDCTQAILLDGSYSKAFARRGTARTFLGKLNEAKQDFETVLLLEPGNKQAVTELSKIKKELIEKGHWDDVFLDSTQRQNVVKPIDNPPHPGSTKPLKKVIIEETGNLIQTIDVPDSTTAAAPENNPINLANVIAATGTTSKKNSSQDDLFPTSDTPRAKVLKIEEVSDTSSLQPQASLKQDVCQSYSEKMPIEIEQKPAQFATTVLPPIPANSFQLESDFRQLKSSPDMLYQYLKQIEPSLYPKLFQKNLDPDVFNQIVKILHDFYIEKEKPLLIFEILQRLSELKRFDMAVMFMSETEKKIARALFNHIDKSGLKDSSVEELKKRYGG
# UniProt P78345: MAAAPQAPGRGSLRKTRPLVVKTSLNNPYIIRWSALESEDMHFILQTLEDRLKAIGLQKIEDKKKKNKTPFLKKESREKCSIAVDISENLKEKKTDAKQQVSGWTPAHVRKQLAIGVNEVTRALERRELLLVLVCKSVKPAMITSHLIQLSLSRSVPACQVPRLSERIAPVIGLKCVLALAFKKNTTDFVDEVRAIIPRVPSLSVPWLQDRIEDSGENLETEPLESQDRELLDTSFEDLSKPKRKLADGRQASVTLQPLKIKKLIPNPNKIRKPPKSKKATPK
# UniProt P35244: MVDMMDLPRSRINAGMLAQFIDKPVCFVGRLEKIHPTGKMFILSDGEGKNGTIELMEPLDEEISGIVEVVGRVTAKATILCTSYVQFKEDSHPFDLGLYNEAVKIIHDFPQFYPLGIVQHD
# Some of the results follow.
# Compound: CC1Cc2ccccc2N1C(=O)C1CCCN(C1)C(=O)CCl (mixture of isomers) [TRIM25 ligand 11 (diastereomer mixture)]
# Assay: probe-labelled cysteine peptide fold change vs DMSO (competition) (log2 fold change); higher = less target engagement (more negative = stronger competition)
# Details: 10 µM; THP-1; incubation time: 4 h
# 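Note: competitive chemoproteomic profiling in live THP-1 cells with an iodoacetamide desthiobiotin (IA-DTB) probe, comparing probe-labelled peptide intensities in compound-treated cells against DMSO-treated controls.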
row,Target,probe-labelled cysteine peptide fold change
1,RPL12_P30050_17_CTGGEVGATSALAPK (UniProt P30050),-0.0559
2,RNF213_Q63HN8_1788_CLPAFLPDCLDLETLGHCLAHLAGMGGSPVER (UniProt Q63HN8),-0.259
3,RPL4_P36578_96_SGQGAFGNMCR (UniProt P36578),-0.112
4,RNPEP_Q9H4A4_130_ERPGSEEPPAEPVSFYTQPFSHYGQALCVSFPQPCR (UniProt Q9H4A4),-0.0241
5,RPL32_P62910_91_ELEVLLMCNK (UniProt P62910),-0.173
6,RNF41_Q9H4P4_134_DELPNHNCIK (UniProt Q9H4P4),0.109
7,RPL37A_P61513_57_AVGIWHCGSCMK (UniProt P61513),0.0317
8,RNF213_Q63HN8_1796_CLPAFLPDCLDLETLGHCLAHLAGMGGSPVER (UniProt Q63HN8),0.0946
9,RPL13A_P40429_38_CEGINISGNFYR (UniProt P40429),0.153
10,RPL10A_P62906_66+74_FSVCVLGDQQHCDEAK (UniProt P62906),-0.151
11,RNH1_P13489_220_DLCGIVASK (UniProt P13489),-0.00814
12,ROCK1_Q13464_1245_GHEFIPTLYHFPANCDACAK (UniProt Q13464),0.0891
13,RPL7A_P62424_182_KMGVPYCIIK (UniProt P62424),-0.287
14,RNMT_O43148_73_ESSSCGK (UniProt O43148),-0.135
15,RNF214_Q8ND24_696_FWAQTNTNDTCPFCPTLK (UniProt Q8ND24),-0.00145
16,RPP30_P78346_225_AAVSTNCR (UniProt P78346),-0.145
17,RPL34_P49207_46_SACGVCPGR (UniProt P49207),-0.221
18,RPL7_P18124_186_YGIICMEDLIHEIYTVGKR (UniProt P18124),-0.276
19,RNH1_P13489_75+85_SNELGDVGVHCVLQGLQTPSCKIQK (UniProt P13489),-0.273

row,Target,probe-labelled cysteine peptide fold change
1,RPL8_P62917_90_TELFIAAEGIHTGQFVYCGK (UniProt P62917),-0.0745
2,RNF213_Q63HN8_2809_QVHLVSFQCSPHSTPQGIISTFR (UniProt Q63HN8),0.227
3,RPL24_P83731_6_MKVELCSFSGYK (UniProt P83731),-0.291
4,RNF213_Q63HN8_3365_NCLTNTAK (UniProt Q63HN8),0.0214
5,RPAIN_Q86UA6_187_ACLEGSINEHSAHCPHTPEFSVTGGTEEK (UniProt Q86UA6),0.117
6,RNH1_P13489_38_LDDCGLTEAR (UniProt P13489),-0.129
7,RNF181_Q9P0P0_116_TNSCPLCR (UniProt Q9P0P0),-0.183
8,RPAP3_Q9H6T3_190_FAVAESDCNLAVALNR (UniProt Q9H6T3),-0.116
9,RNH1_P13489_96+102_LSLQNCCLTGAGCGVLSSTLR (UniProt P13489),-0.148
10,RPL11_P62913_21+25_LCLNICVGESGDR (UniProt P62913),0.0343
11,RNPEP_Q9H4A4_85_LDSHPCLEVTAAALR (UniProt Q9H4A4),0.0713
12,RNF213_Q63HN8_3854_WNHELAGCEMTLDAFAAMACTEMLTR (UniProt Q63HN8),0.064
13,RNH1_P13489_362_ELCQGLGQPGSVLR (UniProt P13489),0.0673
14,RPL10_P27635_49_AKVDEFPLCGHMVSDEYEQLSSEALEAAR (UniProt P27635),-0.275
15,RPL10A_P62906_74_FSVCVLGDQQHCDEAK (UniProt P62906),0.00411
16,RPP38_P78345_176_CVLALAFK (UniProt P78345),0.00849
17,RPA3_P35244_26_INAGMLAQFIDKPVCFVGR (UniProt P35244),-0.0762
18,RPL10_P27635_195_LIPDGCGVK (UniProt P27635),-0.112

# Same assay, conditions: 50 µM; THP-1; incubation time: 4 h
row,Target,probe-labelled cysteine peptide fold change
1,RPL12_P30050_17_CTGGEVGATSALAPK (UniProt P30050),-0.0447
2,RNF213_Q63HN8_1788_CLPAFLPDCLDLETLGHCLAHLAGMGGSPVER (UniProt Q63HN8),-0.11
3,RPL4_P36578_96_SGQGAFGNMCR (UniProt P36578),-0.162
4,RNPEP_Q9H4A4_130_ERPGSEEPPAEPVSFYTQPFSHYGQALCVSFPQPCR (UniProt Q9H4A4),0.0341
5,RPL32_P62910_91_ELEVLLMCNK (UniProt P62910),-0.0552
6,RNF41_Q9H4P4_134_DELPNHNCIK (UniProt Q9H4P4),0.172
7,RPL37A_P61513_57_AVGIWHCGSCMK (UniProt P61513),0.0463
8,RNF213_Q63HN8_1796_CLPAFLPDCLDLETLGHCLAHLAGMGGSPVER (UniProt Q63HN8),0.347
9,RPL13A_P40429_38_CEGINISGNFYR (UniProt P40429),0.242
10,RPL10A_P62906_66+74_FSVCVLGDQQHCDEAK (UniProt P62906),-0.327
11,RNH1_P13489_220_DLCGIVASK (UniProt P13489),-0.0657
12,ROCK1_Q13464_1245_GHEFIPTLYHFPANCDACAK (UniProt Q13464),0.0665
13,RPL7A_P62424_182_KMGVPYCIIK (UniProt P62424),-0.249
14,RNMT_O43148_73_ESSSCGK (UniProt O43148),-0.174
15,RNF214_Q8ND24_696_FWAQTNTNDTCPFCPTLK (UniProt Q8ND24),0.189
16,RPP30_P78346_225_AAVSTNCR (UniProt P78346),0.0901
17,RPL34_P49207_46_SACGVCPGR (UniProt P49207),-0.285
18,RPL7_P18124_186_YGIICMEDLIHEIYTVGKR (UniProt P18124),-0.172
19,RNH1_P13489_75+85_SNELGDVGVHCVLQGLQTPSCKIQK (UniProt P13489),0.0124

row,Target,probe-labelled cysteine peptide fold change
1,RPL8_P62917_90_TELFIAAEGIHTGQFVYCGK (UniProt P62917),-0.061
2,RNF213_Q63HN8_2809_QVHLVSFQCSPHSTPQGIISTFR (UniProt Q63HN8),0.189
3,RPL24_P83731_6_MKVELCSFSGYK (UniProt P83731),-0.436
4,RNF213_Q63HN8_3365_NCLTNTAK (UniProt Q63HN8),0.0812
5,RPAIN_Q86UA6_187_ACLEGSINEHSAHCPHTPEFSVTGGTEEK (UniProt Q86UA6),0.0792
6,RNH1_P13489_38_LDDCGLTEAR (UniProt P13489),-0.291
7,RNF181_Q9P0P0_116_TNSCPLCR (UniProt Q9P0P0),0.024
8,RPAP3_Q9H6T3_190_FAVAESDCNLAVALNR (UniProt Q9H6T3),0.103
9,RNH1_P13489_96+102_LSLQNCCLTGAGCGVLSSTLR (UniProt P13489),0.0275
10,RPL11_P62913_21+25_LCLNICVGESGDR (UniProt P62913),0.0239
11,RNPEP_Q9H4A4_85_LDSHPCLEVTAAALR (UniProt Q9H4A4),-0.0588
12,RNF213_Q63HN8_3854_WNHELAGCEMTLDAFAAMACTEMLTR (UniProt Q63HN8),-0.0763
13,RNH1_P13489_362_ELCQGLGQPGSVLR (UniProt P13489),0.135
14,RPL10_P27635_49_AKVDEFPLCGHMVSDEYEQLSSEALEAAR (UniProt P27635),-0.368
15,RPL10A_P62906_74_FSVCVLGDQQHCDEAK (UniProt P62906),-0.082
16,RPP38_P78345_176_CVLALAFK (UniProt P78345),0.0956
17,RPA3_P35244_26_INAGMLAQFIDKPVCFVGR (UniProt P35244),-0.0659
18,RPL10_P27635_195_LIPDGCGVK (UniProt P27635),-0.223
